Data as given in PubChem BioAssay AID1159578 (Peter MacCallum Cancer Centre, 2015)
Test: 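Genome-wide hunt for genes controlling movement of lymphatic endothelial cells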 (primary screen). Cells: human lymphatic endothelial cells. Reagent: siRNA pool against human genes, 40 nM. Timing: 48 h after transfection. Detection: 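Cells stained with dye and imaged after a scratch; covered wound area and nuclei counted, duplicates averaged, migration set against mock wells and turned into a robust z-score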. Reading the numbers: migration robust z-score: higher = faster migration into the scratch; nuclei per well: higher = more cells in the well. Hit rule: 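Migration changed when robust z exceeds 2 or falls below -2 and mean nuclei number is at least 3300; otherwise not called changed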. Calls: active = migration changed; inactive = no migration change, or too few cells.
In all, the deposit lists about 18,000 reagents; below is a part drawn at random. About 1,030 of all reagents (5.7%) were called active. 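Inactive calls also include pools with fewer than 3300 nuclei, whose migration was not assessed.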 The raw values are shown without normalisation. Not all columns of the deposit are shown.

PPA2: migration robust z-score = 0.18; nuclei per well, duplicate mean = 4880; call = inactive
JKAMP: migration robust z-score = -1.34; nuclei per well, duplicate mean = 5546; call = inactive
OSTF1: migration robust z-score = -0.26; nuclei per well, duplicate mean = 6880; call = inactive
SIGLECL1: migration robust z-score = 0.5; nuclei per well, duplicate mean = 5696; call = inactive
LOC652759 (retired record): migration robust z-score = -0.57; nuclei per well, duplicate mean = 5417; call = inactive
FGFR1OP2: migration robust z-score = -0.94; nuclei per well, duplicate mean = 4961; call = inactive
CENPM: migration robust z-score = -1.46; nuclei per well, duplicate mean = 4947; call = inactive
SCARA5: migration robust z-score = -2.21; nuclei per well, duplicate mean = 5019; call = active
INTS14: migration robust z-score = -2.18; nuclei per well, duplicate mean = 5378; call = active
PCCA: migration robust z-score = -0.42; nuclei per well, duplicate mean = 4933; call = inactive
CENPV: migration robust z-score = 0.28; nuclei per well, duplicate mean = 6002; call = inactive
CHMP2B: migration robust z-score = -1.79; nuclei per well, duplicate mean = 6322; call = inactive
CPLX1: migration robust z-score = 0.13; nuclei per well, duplicate mean = 5262; call = inactive
SLC25A45: migration robust z-score = -0.13; nuclei per well, duplicate mean = 6872; call = inactive
SRXN1: migration robust z-score = 0.08; nuclei per well, duplicate mean = 5858; call = inactive
CCDC13: migration robust z-score = 0.49; nuclei per well, duplicate mean = 5766; call = inactive
ODC1: migration robust z-score = -0.29; nuclei per well, duplicate mean = 6087; call = inactive
TTC23: migration robust z-score = -0.76; nuclei per well, duplicate mean = 7110; call = inactive
PNKD: migration robust z-score = -0.94; nuclei per well, duplicate mean = 5050; call = inactive
SC5D: migration robust z-score = -0.26; nuclei per well, duplicate mean = 5983; call = inactive
CNTN1: migration robust z-score = 1.94; nuclei per well, duplicate mean = 5636; call = inactive
NR2C2AP: migration robust z-score = -0.62; nuclei per well, duplicate mean = 4846; call = inactive
RHOC: migration robust z-score = -1.74; nuclei per well, duplicate mean = 3800; call = inactive
REDIC1: migration robust z-score = -0.58; nuclei per well, duplicate mean = 6390; call = inactive
RPS5: migration robust z-score = -1.27; nuclei per well, duplicate mean = 4302; call = inactive
CDC20B: migration robust z-score = 0.59; nuclei per well, duplicate mean = 4733; call = inactive
ING4: migration robust z-score = 2.04; nuclei per well, duplicate mean = 6128; call = active

2 entries from above, sorted by “migration robust z-score”, low to high:
CENPM: migration robust z-score = -1.46; nuclei per well, duplicate mean = 4947; call = inactive
FGFR1OP2: migration robust z-score = -0.94; nuclei per well, duplicate mean = 4961; call = inactive
